Data on four substances can be found in paper PMC5827551.

Sequences of proteins named here, by UniProt entry; tags and fusion partners are left off.
UniProt P09429: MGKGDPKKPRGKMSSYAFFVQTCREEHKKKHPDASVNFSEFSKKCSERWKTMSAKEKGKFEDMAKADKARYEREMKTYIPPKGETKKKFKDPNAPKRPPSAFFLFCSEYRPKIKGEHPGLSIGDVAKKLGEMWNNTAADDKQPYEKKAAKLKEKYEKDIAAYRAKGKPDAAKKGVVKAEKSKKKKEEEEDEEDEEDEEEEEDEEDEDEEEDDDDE
UniProt P63158: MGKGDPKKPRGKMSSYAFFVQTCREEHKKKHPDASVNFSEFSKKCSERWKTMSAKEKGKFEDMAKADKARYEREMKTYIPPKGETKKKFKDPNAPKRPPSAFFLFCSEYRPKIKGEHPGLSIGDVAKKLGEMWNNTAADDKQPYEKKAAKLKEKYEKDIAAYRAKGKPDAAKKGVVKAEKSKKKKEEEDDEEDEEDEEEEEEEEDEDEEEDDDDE
UniProt P09211: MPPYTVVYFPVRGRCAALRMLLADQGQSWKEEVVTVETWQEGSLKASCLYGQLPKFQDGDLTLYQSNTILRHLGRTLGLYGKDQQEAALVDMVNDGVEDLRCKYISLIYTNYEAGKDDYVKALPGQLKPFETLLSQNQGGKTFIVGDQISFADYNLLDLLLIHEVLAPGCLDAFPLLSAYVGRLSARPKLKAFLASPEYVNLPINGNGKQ
UniProt Q6P5F9: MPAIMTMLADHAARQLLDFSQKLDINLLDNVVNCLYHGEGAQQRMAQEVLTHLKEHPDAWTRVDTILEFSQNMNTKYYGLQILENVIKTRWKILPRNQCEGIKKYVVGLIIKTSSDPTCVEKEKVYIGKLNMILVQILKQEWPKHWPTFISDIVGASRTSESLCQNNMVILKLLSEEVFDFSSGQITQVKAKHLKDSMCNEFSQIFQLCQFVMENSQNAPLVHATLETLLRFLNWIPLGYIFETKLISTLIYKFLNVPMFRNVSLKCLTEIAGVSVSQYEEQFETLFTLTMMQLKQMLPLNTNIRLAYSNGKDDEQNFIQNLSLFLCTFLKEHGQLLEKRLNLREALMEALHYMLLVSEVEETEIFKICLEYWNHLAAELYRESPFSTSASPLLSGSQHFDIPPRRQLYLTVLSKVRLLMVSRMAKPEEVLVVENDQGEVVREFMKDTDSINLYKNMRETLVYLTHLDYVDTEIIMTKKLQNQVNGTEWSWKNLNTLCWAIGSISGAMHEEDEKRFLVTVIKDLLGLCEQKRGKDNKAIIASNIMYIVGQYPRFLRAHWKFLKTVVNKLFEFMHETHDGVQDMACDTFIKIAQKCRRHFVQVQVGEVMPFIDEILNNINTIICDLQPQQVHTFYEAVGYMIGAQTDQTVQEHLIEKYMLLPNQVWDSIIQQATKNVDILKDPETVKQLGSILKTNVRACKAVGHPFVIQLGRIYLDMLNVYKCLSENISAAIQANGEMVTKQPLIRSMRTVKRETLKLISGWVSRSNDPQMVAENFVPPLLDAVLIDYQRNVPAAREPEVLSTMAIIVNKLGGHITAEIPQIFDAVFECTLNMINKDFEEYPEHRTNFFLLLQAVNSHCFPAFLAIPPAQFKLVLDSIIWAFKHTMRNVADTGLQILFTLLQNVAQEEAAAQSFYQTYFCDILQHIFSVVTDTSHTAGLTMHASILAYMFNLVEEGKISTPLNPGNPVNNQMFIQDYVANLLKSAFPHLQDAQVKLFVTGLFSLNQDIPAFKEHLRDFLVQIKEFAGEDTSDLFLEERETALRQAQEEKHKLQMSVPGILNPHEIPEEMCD

The target of assay [1] is His-HMGB1, recombinant polyhistidine-tagged (UniProt P09429). Nature of the assay: pull-down; His-HMGB1 immobilised on Ni2+-IDA-agarose beads, incubated with lysates of HEK293 cells transfected with Flag-GSTP (WT or mutants), lysis buffer, 4°C, 8 h; immunoblotting; only the target purified. On the technique in general: A western blot detects proteins with antibodies after separation by electrophoresis.

Assay [2] deals with High mobility group box-1 protein (HMGB1), endogenous in RAW264.7 cells (mouse (endogenous in RAW264.7)) (UniProt P63158). Nature of the assay: co-IP; nuclear extracts of RAW264.7 cells transfected with Flag-GSTP or empty vector, LPS (500 ng/ml) for indicated time; immunoprecipitation with anti-HMGB1 or anti-Flag antibody and protein A/G plus-agarose at 4°C overnight, immunoblotting.

Assay [3] has as its target His-GSTP (WT), recombinant polyhistidine-tagged (UniProt P09211). Nature of the assay: pull-down; His-GSTP (WT or mutants) immobilised on Ni2+-IDA-agarose beads, incubated with lysates of HEK293 cells transfected with Flag-HMGB1, lysis buffer, 4°C, 8 h; immunoblotting with anti-His or anti-Flag; only the target purified.
For assay [4], the target named is High mobility group box-1 protein (HMGB1), endogenous in RAW264.7 cells (mouse (endogenous in RAW264.7)) (UniProt P63158). As to the kind of experiment: co-IP; whole cell lysates of RAW264.7 cells transfected with Flag-GSTP or empty vector, LPS (500 ng/ml) for 0-30 min or 6 h, also PMA (100 nM) and GF109203X (10 µM) pretreatment; immunoprecipitation with anti-Flag, anti-cPKC or anti-HMGB1 antibody, immunoblotting.

Results are given in words; binding and its absence hold for the method and conditions named. Binding seen in cells or lysates may run through a third protein. Some entries that bind do so weakly or less than the wild type.

Regarding “Flag-GSTP (WT), expressed in HEK293 cells (from UniProt P09211 1-210) (enzyme)”, in assay [1], the binding result is given as “binds”. For the substance “Flag-GSTP (glutathione S-transferase Pi, wild type), expressed in RAW264.7 cells (from UniProt P09211 1-210) (enzyme)”, the binding result in assay [2] is “binds”.

For “Flag-HMGB1, expressed in HEK293 cells (from UniProt P09429 1-215)”, in assay [3], the binding result was “binds”. For “chromosomal region maintenance 1 (CRM1), endogenous in RAW264.7 cells (from UniProt Q6P5F9 1-1071)”, the binding entry in assay [4] is reported as “binds”.
